These are yes or no findings as the source states them, for the method shown. Some results given as binding are weak or reduced against the parent protein; the word gives no strength.

Sequences of proteins named here, by UniProt entry; tags and fusion partners are left off. A change or cut given only in a name is not applied to a line headed by its entry. Residues count along the entry.
UniProt Q92956, residues 39-202: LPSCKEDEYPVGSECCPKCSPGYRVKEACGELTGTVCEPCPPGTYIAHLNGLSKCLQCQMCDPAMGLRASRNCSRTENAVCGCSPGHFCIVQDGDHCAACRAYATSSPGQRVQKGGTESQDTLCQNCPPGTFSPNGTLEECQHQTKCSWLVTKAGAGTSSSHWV

We go through three molecules from patent US20240317871A1.

In assay [1] the target is human HVEM recombinant protein (Sino Biological, 10334-H03H) (human) (UniProt Q92956). Kind of assay: ELISA, coated HVEM, mAb 125 ng/ml. A general note: In an ELISA, binding on a coated surface is turned into a signal by an enzyme label.
For assay [2] the target is unchanged. Kind of assay: ELISA, coated HVEM.

B1: Ab_090 (H5S14-7A4A) (antibody, V domains shown)
VH: EVQLQQSGPELVKPGASVKISCKTSGYTFTEYTMHWVKQSHGKSLEWIGGINPNNGGTINNQKFKGKATLTVDMSSSTAYMELRSLTSEDSAVYYCAGSVVDRYWYFDVWGAGTTVTVSS
VL: QIVLTQSPAIMSASPGEKVTISCSASSSVSYMYWYQQKPGSSPKPWIYRTSNLASGVPARFSGSGSGTSYSLTISSMEAEDAATYYCQQYHSYPLTFGAGTKLELK
On to B1, for which, in assay [1], the binding entry was “binds”.

B2: Ab_091 (H5S15-10A11A) (antibody, V domains shown)
VH: DVQLVESGGGLVQPGGSRKLSCAASGFTFSSFGMHWIRQAPEKGLEWVASISSGSSTIYFADTVKGRFTISRDNPKNTLFLQMTSLRSEDTAMYYCARGAYGNFAWFPYWGQGTLVTVSA
VL: DVVMTQTPLSLPVSLGDQASVSCRSSQSLVHSNGNTYLHWYLQKPGQSPKLLIYKVSNRFSGVPDRFIGSGSGTDFTLKISRVEAEDLGVYFCSQSTHVPTFGSGTKLEVK
Turning to B2, the binding result in assay [2] is “no binding (tested: 125 ng/ml)”.

B3: Ab_092 (H5S15-15A8A) (antibody, V domains shown)
VH: QIQLVQSGPEVKKPGETVKISCKASGYTLTNYGMNWVKQAPGKGLKWVGWINTYTGEPTYADDFKGRFAFSLETSASTAYLQINNLKNEDMATYFCARSFYGSEAYWGQGTLVTVSA
VL: QIVLTQSPAIMSASLGEEITLTCSASSSVSFMHWYQQKSGTSPKLLIYSTSNLASGVPSRFSGSGSGTFYSLTISSVEAEDAADYYCHQWSSYLWTFGGGAKLEIK
For the molecule B3, the binding entry in assay [2] was “no binding (tested: 125 ng/ml)”.
